Where two headings read alike, the source gives them in different places. No constants are given. Whether binding was seen depends on the method and setting. In cells and extracts the contact can be indirect. Some binding calls cover weakened binding; strength is not graded here. Where a sequence is shown, tags or fusion partners need not be part of it.
T1: endogenously-tagged B55^SUR-6 with the GFP and the FLAG tag (C. elegans) (UniProt G5EDR3)
T1 sequence: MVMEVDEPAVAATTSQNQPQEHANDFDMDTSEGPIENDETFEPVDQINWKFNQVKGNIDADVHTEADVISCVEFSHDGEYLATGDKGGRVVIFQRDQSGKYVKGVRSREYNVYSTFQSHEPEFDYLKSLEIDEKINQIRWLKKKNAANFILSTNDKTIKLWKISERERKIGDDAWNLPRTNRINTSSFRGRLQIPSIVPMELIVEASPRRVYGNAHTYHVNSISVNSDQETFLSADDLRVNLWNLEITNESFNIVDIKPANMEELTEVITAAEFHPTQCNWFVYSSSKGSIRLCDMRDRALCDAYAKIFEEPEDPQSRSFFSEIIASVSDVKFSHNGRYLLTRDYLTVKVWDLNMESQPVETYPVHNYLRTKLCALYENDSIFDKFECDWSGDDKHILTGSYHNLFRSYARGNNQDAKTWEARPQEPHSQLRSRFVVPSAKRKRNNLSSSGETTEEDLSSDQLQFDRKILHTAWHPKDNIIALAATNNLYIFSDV

Chains of the proteins cited; added tags and fusions are not shown.
UniProt G5EGK8: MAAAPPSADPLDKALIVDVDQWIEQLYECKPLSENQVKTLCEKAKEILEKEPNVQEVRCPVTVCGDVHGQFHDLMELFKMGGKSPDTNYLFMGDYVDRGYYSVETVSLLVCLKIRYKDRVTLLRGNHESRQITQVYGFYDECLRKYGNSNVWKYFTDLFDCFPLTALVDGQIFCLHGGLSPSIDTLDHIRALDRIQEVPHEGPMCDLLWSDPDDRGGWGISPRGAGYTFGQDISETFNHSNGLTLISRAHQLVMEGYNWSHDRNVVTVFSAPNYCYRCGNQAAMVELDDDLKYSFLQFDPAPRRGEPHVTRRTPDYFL

B1: Glutathione S-transferase (GST)-tag LMN-1, recombinant full-length (protein, UniProt Q21443 1-566)
chain: MSSRKGTRSSRIVTLERSANSSLSNNGGGDDSFGSTLLETSRLQEKDHLTSLNSRLATYIDKVRQLEQENNRLQVQIRDIEVVEKKEKSNLADRFEAEKARLRRALDSAQDELAKYRIEYDAAKVEVKKLKPQVEKLERELAGAEEQALHAQSIADQSQAKQKTLQARNDKLVVENDDLKKQNITLRDTVEGLKKAVEDETLLRTAANNKIKALEEDLAFALQQHKGELEEVRHKRQVDMTTYAKQINDEYQSKLQDQIEEMRAQFKNNLHQNKTAFEDAYKNKLNAARERQEEAVSEAIHLRARVRDLETSSSGNASLIERLRSELDTLKRSFQEKLDDKDARIAELNQEIERMMSEFHDLLDVKIQLDAELKTYQALLEGEEERLNLTQEAPQNTSVHHVSFSSGGASAQRGVKRRRVVDVNGEDQDIDYLNRRSKLNKETVGPVGIDEVDEEGKWVRVANNSEEEQSIGGYKLVVKAGNKEASFQFSSRMKLAPHASATVWSADAGAVHHPPEVYVMKKQQWPIGDNPSARLEDSEGDTVSSITVEFSESSDPSDPADRCSIM
B2: GST-tagged tail domain (386-566 aa) of LMN-1 (domain or fragment, UniProt Q21443 386-566)
chain: RLNLTQEAPQNTSVHHVSFSSGGASAQRGVKRRRVVDVNGEDQDIDYLNRRSKLNKETVGPVGIDEVDEEGKWVRVANNSEEEQSIGGYKLVVKAGNKEASFQFSSRMKLAPHASATVWSADAGAVHHPPEVYVMKKQQWPIGDNPSARLEDSEGDTVSSITVEFSESSDPSDPADRCSIM

Experiments:
[1] = biological target: T1, endogenously-tagged B55^SUR-6 with the GFP and the FLAG tag (C. elegans); test: co-IP
[2] = biological target: T1, endogenously-tagged B55^SUR-6 with the GFP and the FLAG tag (C. elegans); test: co-IP; remark: listed apart in the source

| Molecule | binding [1] | binding [2] |
| --- | --- | --- |
| PP2A catalytical subunit LET-92 (from UniProt G5EGK8 1-318) (enzyme) | binds | – |
| B1 | – | binds |
| B2 | – | binds |
